Data from article PMC1079787.
No constants are given. Whether binding was seen depends on the method and setting. Binding seen in cells or lysates may run through a third protein. Sequences can lack the tags named with a protein.

Biological target: T1, TAP-tagged Rrp6 protein (S. cerevisiae), Q12149
T1 chain: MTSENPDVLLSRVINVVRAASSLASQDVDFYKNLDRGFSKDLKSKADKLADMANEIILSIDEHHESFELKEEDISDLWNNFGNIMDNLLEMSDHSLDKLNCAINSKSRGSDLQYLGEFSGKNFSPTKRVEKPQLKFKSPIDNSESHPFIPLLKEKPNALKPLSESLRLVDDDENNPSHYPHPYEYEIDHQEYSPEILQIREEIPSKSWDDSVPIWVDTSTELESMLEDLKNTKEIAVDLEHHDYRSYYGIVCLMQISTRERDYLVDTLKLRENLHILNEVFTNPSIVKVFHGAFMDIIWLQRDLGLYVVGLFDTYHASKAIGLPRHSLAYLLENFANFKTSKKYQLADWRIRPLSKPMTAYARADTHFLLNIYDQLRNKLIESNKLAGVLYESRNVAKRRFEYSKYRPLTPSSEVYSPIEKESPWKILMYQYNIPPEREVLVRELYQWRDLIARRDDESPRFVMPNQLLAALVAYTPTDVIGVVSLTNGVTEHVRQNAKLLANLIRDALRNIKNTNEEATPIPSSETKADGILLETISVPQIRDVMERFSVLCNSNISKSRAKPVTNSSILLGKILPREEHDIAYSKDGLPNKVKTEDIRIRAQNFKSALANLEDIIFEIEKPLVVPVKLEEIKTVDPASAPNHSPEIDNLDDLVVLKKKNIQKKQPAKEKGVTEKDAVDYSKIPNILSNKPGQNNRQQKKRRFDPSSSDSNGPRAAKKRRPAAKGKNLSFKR
Assay: co-IP; TAP-tagged protein affinity-purified from yeast extract on IgG Sepharose; eluates in buffer A (120 mM KCl); Western blot with anti-Trf4p, anti-Mtr4p and anti-TAP antibodies
Settings: remark: other sources report otherwise

- binding: no binding
B1: Trf4p, P53632 1-584 (enzyme)
chain: MGAKSVTASSSKKIKNRHNGKVKKSKKIKKVRKPQKSISLNDENEVEILPSRNEQETNKLPKDHVTADGILVLEHKSDDDEGFDVYDGHFDNPTDIPSTTEESKTPSLAVHGDEKDLANNDDFISLSASSEDEQAEQEEEREKQELEIKKEKQKEILNTDYPWILNHDHSKQKEISDWLTFEIKDFVAYISPSREEIEIRNQTISTIREAVKQLWPDADLHVFGSYSTDLYLPGSDIDCVVTSELGGKESRNNLYSLASHLKKKNLATEVEVVAKARVPIIKFVEPHSGIHIDVSFERTNGIEAAKLIREWLDDTPGLRELVLIVKQFLHARRLNNVHTGGLGGFSIICLVFSFLHMHPRIITNEIDPKDNLGVLLIEFFELYGKNFGYDDVALGSSDGYPVYFPKSTWSAIQPIKNPFSLAIQDPGDESNNISRGSFNIRDIKKAFAGAFDLLTNRCFELHSATFKDRLGKSILGNVIKYRGKARDFKDERGLVLNKAIIENENYHKKRSRIIHDEDFAEDTVTSTATATTTDDDYEITNPPAKKAKIEEKPESEPAKRNSGETYITVSSEDDDEDGYNPYTL
